# Hit rate of the full screen: of about 65,000 compounds, about 15 (0.02%) were called active.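 The calls were made as follows: active = single-dose screening hits from any of four coupled enzyme assays that gave an IC50 when retested across doses; inconclusive = no clear call, values can overlap the other calls; inactive = the rest.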 Inconclusive means that the source gave no clear call.
# Test: inhibitors of PK/LDH coupling enzymes, profiling panel, artefact control, biochemical, MLSMR library (AID 774)
# Details: coupled PK/LDH NADH assays, four targets
row,Structure (SMILES),IC50
1,O=c1c2ccccc2nc2n1CCC2,inconclusive: > 5.09 mM
2,CC(C)(C)C1CCc2onc(C(=O)Nc3cnn(Cc4ccc(F)cc4)c3)c2C1 (configuration not stated),inconclusive: > 5 mM

# Source: PubChem BioAssay AID774 (SRMLSC, 2007)
